These are yes or no findings as the source states them, for the method shown. For some assays here: In cells and extracts the contact can be indirect. Some binding calls cover weakened binding; strength is not graded here.
T1: Band 4.2 (human (endogenous in red blood cells)) (UniProt P16452)
T1 sequence: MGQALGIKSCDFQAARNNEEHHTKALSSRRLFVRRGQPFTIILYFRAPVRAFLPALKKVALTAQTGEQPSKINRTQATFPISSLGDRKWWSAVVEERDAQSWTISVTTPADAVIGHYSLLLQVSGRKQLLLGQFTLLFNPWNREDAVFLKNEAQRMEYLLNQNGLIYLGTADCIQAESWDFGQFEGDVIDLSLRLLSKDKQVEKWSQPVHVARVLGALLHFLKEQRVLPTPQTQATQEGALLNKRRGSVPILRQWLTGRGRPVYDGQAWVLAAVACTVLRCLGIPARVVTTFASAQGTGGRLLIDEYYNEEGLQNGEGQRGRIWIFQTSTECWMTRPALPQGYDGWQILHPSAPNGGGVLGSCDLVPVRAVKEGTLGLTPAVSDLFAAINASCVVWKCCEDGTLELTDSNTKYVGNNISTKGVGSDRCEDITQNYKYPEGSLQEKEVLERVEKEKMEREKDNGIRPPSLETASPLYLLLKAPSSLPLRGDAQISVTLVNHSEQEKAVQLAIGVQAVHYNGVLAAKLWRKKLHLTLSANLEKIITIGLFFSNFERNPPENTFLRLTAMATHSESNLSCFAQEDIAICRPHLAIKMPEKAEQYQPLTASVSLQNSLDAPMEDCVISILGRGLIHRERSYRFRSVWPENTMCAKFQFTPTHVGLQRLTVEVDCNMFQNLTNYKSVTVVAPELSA

By UniProt entry, the sequences of proteins in these tests, tags left out.
UniProt P02730: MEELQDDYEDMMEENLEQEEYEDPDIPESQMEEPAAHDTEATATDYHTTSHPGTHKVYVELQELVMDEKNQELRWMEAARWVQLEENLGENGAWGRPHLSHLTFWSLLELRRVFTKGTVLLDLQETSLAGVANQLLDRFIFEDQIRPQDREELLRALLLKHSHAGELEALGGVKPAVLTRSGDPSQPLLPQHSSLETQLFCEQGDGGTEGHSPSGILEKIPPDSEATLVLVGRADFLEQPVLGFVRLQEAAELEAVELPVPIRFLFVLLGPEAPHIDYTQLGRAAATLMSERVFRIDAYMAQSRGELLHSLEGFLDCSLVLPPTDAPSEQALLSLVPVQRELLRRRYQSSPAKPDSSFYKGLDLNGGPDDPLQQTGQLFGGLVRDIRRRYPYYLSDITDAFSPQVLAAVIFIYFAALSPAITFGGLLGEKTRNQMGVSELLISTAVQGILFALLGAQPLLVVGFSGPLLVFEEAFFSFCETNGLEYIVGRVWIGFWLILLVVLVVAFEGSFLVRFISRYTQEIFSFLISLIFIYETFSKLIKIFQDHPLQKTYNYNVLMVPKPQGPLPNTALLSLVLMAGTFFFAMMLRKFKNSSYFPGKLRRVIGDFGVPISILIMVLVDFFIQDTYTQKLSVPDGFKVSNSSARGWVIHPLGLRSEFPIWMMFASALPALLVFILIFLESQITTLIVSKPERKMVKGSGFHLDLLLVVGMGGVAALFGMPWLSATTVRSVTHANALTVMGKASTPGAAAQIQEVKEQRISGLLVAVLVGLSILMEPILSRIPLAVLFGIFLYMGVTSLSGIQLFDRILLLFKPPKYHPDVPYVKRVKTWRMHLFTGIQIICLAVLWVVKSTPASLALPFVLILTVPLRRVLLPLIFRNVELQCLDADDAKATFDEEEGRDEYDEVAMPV
UniProt P29144: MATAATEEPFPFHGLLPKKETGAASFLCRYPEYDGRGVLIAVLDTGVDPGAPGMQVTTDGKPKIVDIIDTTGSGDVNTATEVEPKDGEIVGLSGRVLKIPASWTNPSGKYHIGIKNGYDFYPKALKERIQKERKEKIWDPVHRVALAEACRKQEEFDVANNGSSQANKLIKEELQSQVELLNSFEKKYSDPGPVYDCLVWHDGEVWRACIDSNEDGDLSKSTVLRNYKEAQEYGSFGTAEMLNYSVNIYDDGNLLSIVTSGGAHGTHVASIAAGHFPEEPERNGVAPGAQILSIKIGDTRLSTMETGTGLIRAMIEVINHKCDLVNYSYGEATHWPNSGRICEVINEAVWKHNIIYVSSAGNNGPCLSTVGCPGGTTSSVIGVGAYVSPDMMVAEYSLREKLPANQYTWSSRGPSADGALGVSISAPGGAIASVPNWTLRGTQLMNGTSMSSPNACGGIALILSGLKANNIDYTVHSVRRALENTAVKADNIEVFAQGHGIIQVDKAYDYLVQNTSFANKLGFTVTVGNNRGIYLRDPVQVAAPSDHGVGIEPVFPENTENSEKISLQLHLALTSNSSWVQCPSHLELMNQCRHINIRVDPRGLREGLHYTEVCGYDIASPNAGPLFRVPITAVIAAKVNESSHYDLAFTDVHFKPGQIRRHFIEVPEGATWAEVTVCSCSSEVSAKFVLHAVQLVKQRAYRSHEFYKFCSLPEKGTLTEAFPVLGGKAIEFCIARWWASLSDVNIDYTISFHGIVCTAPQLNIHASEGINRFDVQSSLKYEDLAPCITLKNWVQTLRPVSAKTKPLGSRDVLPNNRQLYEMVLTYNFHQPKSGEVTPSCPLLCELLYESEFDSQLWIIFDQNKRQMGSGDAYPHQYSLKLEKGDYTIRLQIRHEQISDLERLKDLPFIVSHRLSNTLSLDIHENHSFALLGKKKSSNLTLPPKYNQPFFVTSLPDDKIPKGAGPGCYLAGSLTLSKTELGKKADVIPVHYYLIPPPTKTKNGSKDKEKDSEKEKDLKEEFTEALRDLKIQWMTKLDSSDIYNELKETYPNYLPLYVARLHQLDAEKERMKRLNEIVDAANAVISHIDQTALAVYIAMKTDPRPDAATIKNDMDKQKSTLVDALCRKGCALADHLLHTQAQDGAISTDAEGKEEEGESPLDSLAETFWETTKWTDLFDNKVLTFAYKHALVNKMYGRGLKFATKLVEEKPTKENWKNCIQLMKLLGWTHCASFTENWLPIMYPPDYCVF
UniProt P16157: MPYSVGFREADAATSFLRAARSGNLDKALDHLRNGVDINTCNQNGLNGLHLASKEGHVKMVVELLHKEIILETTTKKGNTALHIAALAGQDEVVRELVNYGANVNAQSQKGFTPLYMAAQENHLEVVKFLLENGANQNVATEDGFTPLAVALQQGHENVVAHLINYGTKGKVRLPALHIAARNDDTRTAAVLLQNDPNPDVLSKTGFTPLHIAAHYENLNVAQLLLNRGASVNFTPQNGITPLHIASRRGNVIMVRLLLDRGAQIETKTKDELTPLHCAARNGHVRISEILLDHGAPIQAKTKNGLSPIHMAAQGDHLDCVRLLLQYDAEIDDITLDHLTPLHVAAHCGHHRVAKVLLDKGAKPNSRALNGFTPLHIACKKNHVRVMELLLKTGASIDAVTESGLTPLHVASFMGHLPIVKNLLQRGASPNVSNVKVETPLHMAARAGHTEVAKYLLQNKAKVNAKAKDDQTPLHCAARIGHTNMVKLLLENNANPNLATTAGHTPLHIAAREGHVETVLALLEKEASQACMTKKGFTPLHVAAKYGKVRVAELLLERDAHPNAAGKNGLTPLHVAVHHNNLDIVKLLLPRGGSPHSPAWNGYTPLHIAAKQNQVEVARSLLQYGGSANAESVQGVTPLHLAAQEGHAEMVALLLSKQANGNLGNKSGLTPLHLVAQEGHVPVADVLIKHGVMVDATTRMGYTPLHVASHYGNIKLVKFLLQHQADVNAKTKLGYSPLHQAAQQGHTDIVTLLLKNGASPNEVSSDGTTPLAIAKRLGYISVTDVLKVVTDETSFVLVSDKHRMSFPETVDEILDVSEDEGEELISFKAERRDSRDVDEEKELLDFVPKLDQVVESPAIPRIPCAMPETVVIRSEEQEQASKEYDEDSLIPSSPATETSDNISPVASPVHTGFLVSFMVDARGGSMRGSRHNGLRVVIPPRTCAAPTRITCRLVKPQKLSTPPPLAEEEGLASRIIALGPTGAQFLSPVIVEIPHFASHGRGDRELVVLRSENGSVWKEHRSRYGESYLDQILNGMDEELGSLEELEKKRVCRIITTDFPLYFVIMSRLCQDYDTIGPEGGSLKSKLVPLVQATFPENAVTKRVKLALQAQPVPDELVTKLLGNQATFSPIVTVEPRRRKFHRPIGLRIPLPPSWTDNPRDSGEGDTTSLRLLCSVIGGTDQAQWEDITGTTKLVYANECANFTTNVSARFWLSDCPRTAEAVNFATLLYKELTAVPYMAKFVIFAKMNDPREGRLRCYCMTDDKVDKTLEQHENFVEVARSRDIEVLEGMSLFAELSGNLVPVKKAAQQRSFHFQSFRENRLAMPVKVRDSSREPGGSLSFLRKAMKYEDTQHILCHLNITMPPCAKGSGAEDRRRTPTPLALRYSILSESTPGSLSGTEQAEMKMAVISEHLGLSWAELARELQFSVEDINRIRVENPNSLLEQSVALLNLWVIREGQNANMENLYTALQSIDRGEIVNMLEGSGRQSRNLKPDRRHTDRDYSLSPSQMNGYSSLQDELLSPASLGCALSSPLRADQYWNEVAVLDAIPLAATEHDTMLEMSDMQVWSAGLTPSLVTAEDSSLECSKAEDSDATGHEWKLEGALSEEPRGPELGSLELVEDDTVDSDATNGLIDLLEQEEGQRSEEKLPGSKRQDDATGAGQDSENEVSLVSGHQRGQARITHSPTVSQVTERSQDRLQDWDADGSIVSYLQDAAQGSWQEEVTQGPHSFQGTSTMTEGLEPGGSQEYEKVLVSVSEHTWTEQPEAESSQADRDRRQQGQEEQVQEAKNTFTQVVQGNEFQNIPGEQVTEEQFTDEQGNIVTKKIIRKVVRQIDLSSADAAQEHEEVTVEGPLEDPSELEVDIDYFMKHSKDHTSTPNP
UniProt P11166: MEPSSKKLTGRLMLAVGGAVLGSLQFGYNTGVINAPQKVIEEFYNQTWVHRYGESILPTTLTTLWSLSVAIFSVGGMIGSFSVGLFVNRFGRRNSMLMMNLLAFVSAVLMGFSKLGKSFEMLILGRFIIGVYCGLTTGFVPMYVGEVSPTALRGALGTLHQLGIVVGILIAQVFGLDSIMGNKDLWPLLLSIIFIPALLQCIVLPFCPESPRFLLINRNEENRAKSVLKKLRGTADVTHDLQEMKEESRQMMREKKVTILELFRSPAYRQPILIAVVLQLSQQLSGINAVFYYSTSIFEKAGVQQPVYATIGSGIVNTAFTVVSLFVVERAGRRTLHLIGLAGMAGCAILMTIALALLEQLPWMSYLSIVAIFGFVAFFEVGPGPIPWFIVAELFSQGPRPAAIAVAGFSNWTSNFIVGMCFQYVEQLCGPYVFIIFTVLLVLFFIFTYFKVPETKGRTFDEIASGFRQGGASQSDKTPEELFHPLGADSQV
UniProt P04406: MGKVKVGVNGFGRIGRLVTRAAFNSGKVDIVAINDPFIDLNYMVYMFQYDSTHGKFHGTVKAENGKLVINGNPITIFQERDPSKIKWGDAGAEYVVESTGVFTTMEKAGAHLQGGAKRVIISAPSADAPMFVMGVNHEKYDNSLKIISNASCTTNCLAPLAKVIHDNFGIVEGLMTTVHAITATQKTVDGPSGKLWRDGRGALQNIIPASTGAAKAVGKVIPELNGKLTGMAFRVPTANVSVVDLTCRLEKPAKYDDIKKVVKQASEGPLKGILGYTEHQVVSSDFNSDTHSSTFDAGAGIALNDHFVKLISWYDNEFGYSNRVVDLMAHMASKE

B1: Band 4.2 (protein, UniProt P16452 1-691)
chain: T1 sequence
B2: RhAG (protein, UniProt Q02094 1-409)
chain: MRFTFPLMAIVLEIAMIVLFGLFVEYETDQTVLEQLNITKPTDMGIFFELYPLFQDVHVMIFVGFGFLMTFLKKYGFSSVGINLLVAALGLQWGTIVQGILQSQGQKFNIGIKNMINADFSAATVLISFGAVLGKTSPTQMLIMTILEIVFFAHNEYLVSEIFKASDIGASMTIHAFGAYFGLAVAGILYRSGLRKGHENEESAYYSDLFAMIGTLFLWMFWPSFNSAIAEPGDKQCRAIVNTYFSLAACVLTAFAFSSLVEHRGKLNMVHIQNATLAGGVAVGTCADMAIHPFGSMIIGSIAGMVSVLGYKFLTPLFTTKLRIHDTCGVHNLHGLPGVVGGLAGIVAVAMGASNTSMAMQAAALGSSIGTAVVGGLMTGLILKLPLWGQPSDQNCYDDSVYWKVPKTR

How the values were obtained:
[1] = molecular target: Band 3 (human (endogenous in red blood cells)) (UniProt P02730); assay: cross-linking
[2] = molecular target: T1, Band 4.2 (human (endogenous in red blood cells)); assay: cross-linking
[3] = molecular target: Tripeptidyl-peptidase 2 (human (endogenous in red blood cells)) (UniProt P29144); assay: negative stain electron microscopy
[4] = molecular target: band 3-Ank1 complex (human (endogenous in red blood cells)) (UniProt P02730+P16157); assay: cross-linking

Molecule	binding [1]	binding [2]	other results
Ankyrin 1 (from UniProt P16157 1-1881)	binds	–	–
GlutI (from UniProt P11166 1-492)	binds	binds	–
Tripeptidyl-peptidase 2 (from UniProt P29144 1-1249) (enzyme)	–	–	binding [3]: binds
glyceraldehyde-3-phosphate dehydrogenase (from UniProt P04406 1-335) (enzyme)	–	–	binding [4]: binds
B1	binds	–	–
B2	binds	binds	–
